Source: article PMC10706632

Protein sequences, listed by entry. Tags and fused reporters are not part of them.
UniProt F6ZDS4: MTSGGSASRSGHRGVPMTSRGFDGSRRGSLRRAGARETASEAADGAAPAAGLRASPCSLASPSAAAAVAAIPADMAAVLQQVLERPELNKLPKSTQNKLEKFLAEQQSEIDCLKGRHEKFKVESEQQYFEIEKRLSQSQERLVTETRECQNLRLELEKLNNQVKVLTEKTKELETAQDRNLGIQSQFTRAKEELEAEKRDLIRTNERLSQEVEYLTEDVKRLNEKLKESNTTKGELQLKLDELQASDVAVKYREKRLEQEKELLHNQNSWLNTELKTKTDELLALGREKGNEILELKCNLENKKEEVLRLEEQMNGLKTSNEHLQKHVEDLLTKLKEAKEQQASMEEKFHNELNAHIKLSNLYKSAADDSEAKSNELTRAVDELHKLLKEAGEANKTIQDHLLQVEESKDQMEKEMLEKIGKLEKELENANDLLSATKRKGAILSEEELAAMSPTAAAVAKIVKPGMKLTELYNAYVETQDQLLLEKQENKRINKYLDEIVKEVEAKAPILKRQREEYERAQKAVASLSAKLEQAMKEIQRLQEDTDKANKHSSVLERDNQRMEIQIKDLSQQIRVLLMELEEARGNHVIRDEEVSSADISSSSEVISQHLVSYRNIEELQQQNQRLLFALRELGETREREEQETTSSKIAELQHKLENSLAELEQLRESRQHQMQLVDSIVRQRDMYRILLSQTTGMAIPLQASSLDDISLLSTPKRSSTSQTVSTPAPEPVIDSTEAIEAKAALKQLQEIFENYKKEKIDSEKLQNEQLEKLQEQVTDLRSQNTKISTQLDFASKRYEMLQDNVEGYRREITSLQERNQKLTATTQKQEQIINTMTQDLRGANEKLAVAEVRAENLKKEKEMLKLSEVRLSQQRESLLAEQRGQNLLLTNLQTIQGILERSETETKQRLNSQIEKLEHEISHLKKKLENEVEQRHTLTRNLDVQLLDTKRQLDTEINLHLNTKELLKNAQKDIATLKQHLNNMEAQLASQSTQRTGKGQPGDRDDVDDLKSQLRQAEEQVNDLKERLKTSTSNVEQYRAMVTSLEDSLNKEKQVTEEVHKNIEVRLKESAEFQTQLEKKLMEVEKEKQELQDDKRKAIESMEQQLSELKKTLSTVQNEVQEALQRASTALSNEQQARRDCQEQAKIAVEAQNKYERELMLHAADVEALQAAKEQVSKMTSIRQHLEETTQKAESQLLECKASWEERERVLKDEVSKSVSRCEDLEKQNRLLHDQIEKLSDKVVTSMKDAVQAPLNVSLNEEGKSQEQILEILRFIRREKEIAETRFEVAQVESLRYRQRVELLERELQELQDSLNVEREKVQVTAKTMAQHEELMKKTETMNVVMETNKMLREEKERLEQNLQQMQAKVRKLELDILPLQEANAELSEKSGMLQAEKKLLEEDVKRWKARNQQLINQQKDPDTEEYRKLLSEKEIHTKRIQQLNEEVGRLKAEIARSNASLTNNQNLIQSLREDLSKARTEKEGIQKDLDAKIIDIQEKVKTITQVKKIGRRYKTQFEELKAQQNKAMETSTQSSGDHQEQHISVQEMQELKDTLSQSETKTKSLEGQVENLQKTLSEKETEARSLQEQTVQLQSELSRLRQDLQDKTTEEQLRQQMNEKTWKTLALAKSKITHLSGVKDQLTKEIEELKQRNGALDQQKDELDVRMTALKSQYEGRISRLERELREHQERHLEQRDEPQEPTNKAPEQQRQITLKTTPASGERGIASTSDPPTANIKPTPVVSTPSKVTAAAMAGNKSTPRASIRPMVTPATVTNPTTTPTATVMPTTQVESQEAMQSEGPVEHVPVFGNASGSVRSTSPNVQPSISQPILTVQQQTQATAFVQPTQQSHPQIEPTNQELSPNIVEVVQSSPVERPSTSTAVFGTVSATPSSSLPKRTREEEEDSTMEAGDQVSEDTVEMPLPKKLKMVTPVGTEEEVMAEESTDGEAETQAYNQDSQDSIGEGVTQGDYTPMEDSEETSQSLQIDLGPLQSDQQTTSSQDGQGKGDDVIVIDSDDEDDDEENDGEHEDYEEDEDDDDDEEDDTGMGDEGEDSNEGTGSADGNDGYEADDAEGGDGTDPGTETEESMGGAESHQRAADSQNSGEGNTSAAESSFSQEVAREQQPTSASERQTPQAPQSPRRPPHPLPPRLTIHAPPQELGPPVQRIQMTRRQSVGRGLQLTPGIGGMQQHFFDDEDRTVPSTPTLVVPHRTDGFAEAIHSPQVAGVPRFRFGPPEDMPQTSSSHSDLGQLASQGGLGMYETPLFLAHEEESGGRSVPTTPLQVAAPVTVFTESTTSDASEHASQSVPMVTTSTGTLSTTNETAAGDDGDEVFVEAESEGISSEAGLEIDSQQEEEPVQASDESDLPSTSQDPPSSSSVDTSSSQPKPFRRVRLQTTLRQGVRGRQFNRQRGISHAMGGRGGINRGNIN
UniProt Q3TKT4: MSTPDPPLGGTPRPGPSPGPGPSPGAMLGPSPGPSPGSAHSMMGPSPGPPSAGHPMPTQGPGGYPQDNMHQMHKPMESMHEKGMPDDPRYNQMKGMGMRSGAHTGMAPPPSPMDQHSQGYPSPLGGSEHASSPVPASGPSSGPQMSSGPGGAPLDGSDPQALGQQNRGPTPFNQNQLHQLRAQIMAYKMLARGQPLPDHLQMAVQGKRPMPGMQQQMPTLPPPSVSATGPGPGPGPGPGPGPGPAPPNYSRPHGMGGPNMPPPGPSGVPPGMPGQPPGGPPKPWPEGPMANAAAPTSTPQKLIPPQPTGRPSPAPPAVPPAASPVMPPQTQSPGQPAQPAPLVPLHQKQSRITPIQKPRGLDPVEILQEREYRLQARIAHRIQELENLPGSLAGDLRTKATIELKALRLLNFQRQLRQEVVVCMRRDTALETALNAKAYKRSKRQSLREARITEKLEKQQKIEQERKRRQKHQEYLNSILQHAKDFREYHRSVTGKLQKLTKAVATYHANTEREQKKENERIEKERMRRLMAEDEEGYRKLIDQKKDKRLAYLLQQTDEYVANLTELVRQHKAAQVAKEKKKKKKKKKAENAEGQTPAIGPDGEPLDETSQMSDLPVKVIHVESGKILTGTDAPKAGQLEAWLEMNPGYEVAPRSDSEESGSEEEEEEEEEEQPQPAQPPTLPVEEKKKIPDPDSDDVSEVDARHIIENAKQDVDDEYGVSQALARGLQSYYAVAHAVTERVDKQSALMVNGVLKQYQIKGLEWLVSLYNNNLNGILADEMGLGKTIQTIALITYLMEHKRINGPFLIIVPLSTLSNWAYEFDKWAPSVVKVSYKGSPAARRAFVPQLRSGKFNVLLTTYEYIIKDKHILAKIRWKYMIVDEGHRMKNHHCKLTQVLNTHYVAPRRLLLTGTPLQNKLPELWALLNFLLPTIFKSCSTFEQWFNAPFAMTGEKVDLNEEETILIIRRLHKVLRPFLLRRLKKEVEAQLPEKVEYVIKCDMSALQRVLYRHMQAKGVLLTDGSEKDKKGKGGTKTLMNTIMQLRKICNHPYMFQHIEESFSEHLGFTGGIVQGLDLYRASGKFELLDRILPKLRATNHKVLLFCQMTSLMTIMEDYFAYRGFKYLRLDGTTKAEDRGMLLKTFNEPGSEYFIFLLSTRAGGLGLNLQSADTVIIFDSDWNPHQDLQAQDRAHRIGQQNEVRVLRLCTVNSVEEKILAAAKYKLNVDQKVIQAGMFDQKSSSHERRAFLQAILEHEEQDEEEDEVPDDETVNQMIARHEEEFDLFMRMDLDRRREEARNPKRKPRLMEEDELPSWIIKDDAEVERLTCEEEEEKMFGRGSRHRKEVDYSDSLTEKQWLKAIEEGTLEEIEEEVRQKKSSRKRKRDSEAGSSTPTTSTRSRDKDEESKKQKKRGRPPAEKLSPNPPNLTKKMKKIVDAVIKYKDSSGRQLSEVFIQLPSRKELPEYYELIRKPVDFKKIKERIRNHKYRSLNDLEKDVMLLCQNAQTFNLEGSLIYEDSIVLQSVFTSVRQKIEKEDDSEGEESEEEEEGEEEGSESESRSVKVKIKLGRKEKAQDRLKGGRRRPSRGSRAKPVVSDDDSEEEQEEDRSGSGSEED
UniProt A2BH40: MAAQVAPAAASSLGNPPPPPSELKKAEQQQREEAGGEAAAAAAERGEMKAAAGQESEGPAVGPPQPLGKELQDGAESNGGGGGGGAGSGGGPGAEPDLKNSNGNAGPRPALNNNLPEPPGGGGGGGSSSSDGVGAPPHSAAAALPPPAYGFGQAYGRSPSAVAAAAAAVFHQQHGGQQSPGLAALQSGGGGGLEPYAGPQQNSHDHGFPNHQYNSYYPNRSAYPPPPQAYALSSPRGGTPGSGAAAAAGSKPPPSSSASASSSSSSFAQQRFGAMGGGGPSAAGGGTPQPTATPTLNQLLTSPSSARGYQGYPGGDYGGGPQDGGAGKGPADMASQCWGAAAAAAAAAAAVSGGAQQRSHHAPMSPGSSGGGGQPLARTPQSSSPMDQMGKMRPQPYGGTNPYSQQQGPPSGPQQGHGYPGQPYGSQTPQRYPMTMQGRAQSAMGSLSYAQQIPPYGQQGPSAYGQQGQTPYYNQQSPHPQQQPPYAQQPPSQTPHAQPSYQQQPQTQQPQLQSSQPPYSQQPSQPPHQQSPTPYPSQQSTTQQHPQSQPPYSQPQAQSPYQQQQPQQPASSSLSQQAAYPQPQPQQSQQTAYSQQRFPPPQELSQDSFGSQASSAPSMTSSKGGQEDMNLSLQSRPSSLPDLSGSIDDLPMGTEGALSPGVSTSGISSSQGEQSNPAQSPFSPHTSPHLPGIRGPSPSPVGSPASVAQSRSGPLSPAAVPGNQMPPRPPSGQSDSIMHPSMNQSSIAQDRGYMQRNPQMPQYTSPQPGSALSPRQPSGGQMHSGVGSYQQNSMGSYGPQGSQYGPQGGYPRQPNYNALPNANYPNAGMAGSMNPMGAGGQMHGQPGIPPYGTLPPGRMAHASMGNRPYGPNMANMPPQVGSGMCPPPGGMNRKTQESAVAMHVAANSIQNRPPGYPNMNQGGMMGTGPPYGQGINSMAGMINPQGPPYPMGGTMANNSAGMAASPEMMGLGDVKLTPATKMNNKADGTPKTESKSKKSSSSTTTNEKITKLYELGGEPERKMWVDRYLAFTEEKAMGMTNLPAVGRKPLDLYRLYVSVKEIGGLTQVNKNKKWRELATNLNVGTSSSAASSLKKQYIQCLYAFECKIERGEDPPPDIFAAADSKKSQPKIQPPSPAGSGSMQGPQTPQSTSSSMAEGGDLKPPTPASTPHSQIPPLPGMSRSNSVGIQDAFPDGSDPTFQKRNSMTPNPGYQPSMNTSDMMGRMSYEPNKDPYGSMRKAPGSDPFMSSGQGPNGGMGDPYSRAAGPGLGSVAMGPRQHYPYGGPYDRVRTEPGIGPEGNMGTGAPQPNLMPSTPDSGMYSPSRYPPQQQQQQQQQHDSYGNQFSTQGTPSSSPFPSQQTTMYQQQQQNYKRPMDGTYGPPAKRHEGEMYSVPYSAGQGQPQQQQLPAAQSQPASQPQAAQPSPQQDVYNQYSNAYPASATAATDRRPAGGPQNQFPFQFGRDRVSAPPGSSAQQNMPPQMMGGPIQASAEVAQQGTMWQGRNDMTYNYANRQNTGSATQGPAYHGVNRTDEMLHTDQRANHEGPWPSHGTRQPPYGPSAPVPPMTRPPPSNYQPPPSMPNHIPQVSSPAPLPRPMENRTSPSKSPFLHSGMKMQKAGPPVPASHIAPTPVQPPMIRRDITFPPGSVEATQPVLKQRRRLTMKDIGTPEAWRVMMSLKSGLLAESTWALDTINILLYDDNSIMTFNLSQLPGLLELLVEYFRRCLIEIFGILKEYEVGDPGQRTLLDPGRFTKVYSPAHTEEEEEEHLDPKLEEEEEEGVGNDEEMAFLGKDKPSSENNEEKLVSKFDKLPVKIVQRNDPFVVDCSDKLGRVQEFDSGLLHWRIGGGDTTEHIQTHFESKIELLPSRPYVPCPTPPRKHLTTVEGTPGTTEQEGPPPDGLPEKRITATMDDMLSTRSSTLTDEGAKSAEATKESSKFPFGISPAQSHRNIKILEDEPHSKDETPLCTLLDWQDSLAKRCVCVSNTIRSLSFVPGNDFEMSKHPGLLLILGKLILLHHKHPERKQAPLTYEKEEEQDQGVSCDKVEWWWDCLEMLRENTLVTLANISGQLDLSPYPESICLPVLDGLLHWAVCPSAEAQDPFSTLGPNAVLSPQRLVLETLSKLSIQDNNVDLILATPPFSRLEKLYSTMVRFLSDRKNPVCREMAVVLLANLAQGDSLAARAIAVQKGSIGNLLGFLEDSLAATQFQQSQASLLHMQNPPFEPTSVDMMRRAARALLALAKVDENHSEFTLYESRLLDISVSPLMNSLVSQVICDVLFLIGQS
UniProt P63082: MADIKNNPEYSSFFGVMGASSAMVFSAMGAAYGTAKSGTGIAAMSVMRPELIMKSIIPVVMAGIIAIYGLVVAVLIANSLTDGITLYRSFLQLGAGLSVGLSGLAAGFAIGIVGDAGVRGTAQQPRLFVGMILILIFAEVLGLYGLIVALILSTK

B1: Eny2 (protein, UniProt Q9JIX0 1-101)
chain: MVVSKMNKDAQMRAAINQKLIETGERERLKELLRAKLIECGWKDQLKAHCKEVIKEKGLEHVTVDDLVAEITPKGRALVPDSVKKELLQRIRTFLAQHASL
B2: Hmgb2 (protein, UniProt P30681 1-210)
chain: MGKGDPNKPRGKMSSYAFFVQTCREEHKKKHPDSSVNFAEFSKKCSERWKTMSAKEKSKFEDLAKSDKARYDREMKNYVPPKGDKKGKKKDPNAPKRPPSAFFLFCSENRPKIKIEHPGLSIGDTAKKLGEMWSEQSAKDKQPYEQKAAKLKEKYEKDIAAYRAKGKSEAGKKGPGRPTGSKKKNEPEDEEEEEEEEEEEDDEEEEEDEE
B3: Tpt1 (protein, UniProt P63028 1-172)
chain: MIIYRDLISHDELFSDIYKIREIADGLCLEVEGKMVSRTEGAIDDSLIGGNASAEGPEGEGTESTVVTGVDIVMNHHLQETSFTKEAYKKYIKDYMKSLKGKLEEQKPERVKPFMTGAAEQIKHILANFNNYQFFIGENMNPDGMVALLDYREDGVTPFMIFFKDGLEMEKC
B4: Cc2d1b (protein, UniProt Q8BRN9 1-848)
chain: MPGPRPRKGPKTSGQGAETAKQLGLFVEFNPEDMLLGVDETEDDGDLEAELLALTGETASRSRKPAPKGQAPLPMAHIEKLAADCMRDVEEDEEEEGLEDDADLLTELQEVLGEDEEAGLLDGSEAASPDLCEEKTWDNTELPVEQAACQQAVPAAAQAGGPRGLQALLEERIRNYREAAASAKEAGEAAKARRCERGLKTLQSQLATVRKGGKICEDEIPPPVALGKRPPAPQERAIKNPEIDSPGPCAMEPGNLSQPESSLPAIAPLPDSDPDPQALLLARQREYKAAALDAKRAGDLDRARELMRIGKRFGTVLEALEKGQPVDLSGMPPAPADLKALPQASKASSATQGLSPAVEQMQPVMASDLPATPVAPAEPTTVLDALQQRLNKYREAGIQARANGDERKARMHDRIAKQYQDAVRAHQAGQKVDFAELPVPPGFPPIPGLEPRKGSEQDSVAATLATAQKLASEDAALVDDDEESDTPAQAPLAKKPAQTLVSPSHLLTEPKASSSKESLSPSVREQVTLLEARKLQYQRAALQAKRRQDLEQAKSHLRVAKSLEAQIIQARAGQPIDLSKVPSPLTDEEGDFILIHHEDLRLSQKAEEVYAQLQKMLQEQQAKCLLFSKQYMHQGNVAETTRFERLAEDRKKQLEILQLAQAQGLDPPSHHFELKTFQTVRIFSELNSTEMHLIIVRGMNLPAPPGVTPDDLDAFVRFEFHYPNSDQAQKSKTAVVKNTNSPEFEQVFKLNINRNHRGFRRVIQSKGIKFEIFHKGSFFRSDKLVGTAHLKLERLEKECEIREIMEVLDGRKPTGGKLEVKVRLREPLSSQDVQTVTENWLVLEPRGL
B5: Rag1 (protein, UniProt P15919 1-1040)
chain: MAASLPSTLSFSSAPDEIQHPQIKFSEWKFKLFRVRSFEKAPEEAQKEKDSSEGKPYLEQSPVVPEKPGGQNSILTQRALKLHPKFSKKFHADGKSSDKAVHQARLRHFCRICGNRFKSDGHSRRYPVHGPVDAKTQSLFRKKEKRVTSWPDLIARIFRIDVKADVDSIHPTEFCHDCWSIMHRKFSSSHSQVYFPRKVTVEWHPHTPSCDICFTAHRGLKRKRHQPNVQLSKKLKTVLNHARRDRRKRTQARVSSKEVLKKISNCSKIHLSTKLLAVDFPAHFVKSISCQICEHILADPVETSCKHLFCRICILRCLKVMGSYCPSCRYPCFPTDLESPVKSFLNILNSLMVKCPAQDCNEEVSLEKYNHHVSSHKESKETLVHINKGGRPRQHLLSLTRRAQKHRLRELKIQVKEFADKEEGGDVKAVCLTLFLLALRARNEHRQADELEAIMQGRGSGLQPAVCLAIRVNTFLSCSQYHKMYRTVKAITGRQIFQPLHALRNAEKVLLPGYHPFEWQPPLKNVSSRTDVGIIDGLSGLASSVDEYPVDTIAKRFRYDSALVSALMDMEEDILEGMRSQDLDDYLNGPFTVVVKESCDGMGDVSEKHGSGPAVPEKAVRFSFTVMRITIEHGSQNVKVFEEPKPNSELCCKPLCLMLADESDHETLTAILSPLIAEREAMKSSELTLEMGGIPRTFKFIFRGTGYDEKLVREVEGLEASGSVYICTLCDTTRLEASQNLVFHSITRSHAENLQRYEVWRSNPYHESVEELRDRVKGVSAKPFIETVPSIDALHCDIGNAAEFYKIFQLEIGEVYKHPNASKEERKRWQATLDKHLRKRMNLKPIMRMNGNFARKLMTQETVDAVCELIPSEERHEALRELMDLYLKMKPVWRSSCPAKECPESLCQYSFNSQRFAELLSTKFKYRYEGKITNYFHKTLAHVPEIIERDGSIGAWASEGNESGNKLFRRFRKMNARQSKCYEMEDVLKHHWLYTSKYLQKFMNAHNALKSSGFTMNSKETLGDPLGIEDSLESQDSMEF
B6: Glyr1 (protein, UniProt Q922P9 1-546)
chain: MAAVSLRLGDLVWGKLGRYPPWPGKIVNPPKDLKKPRGKKCFFVKFFGTEDHAWIKVEQLKPYHAHKEEMIKINKGKRFQQAVDAVEEFLRRAKGKDQTSSHTSADDKNRRNSSEERSRPNSGDEKRKLSLSEGKVKKNMGEGKKRVTSGSADRGSKCLKRAQEQSPRKRGRPPKDEKDLTIPESSTVKGMMAGPMAAFKWQPTATEPVKDADPHFHHFLLSQTEKPAVCYQAITKKLKICEEETGSTSIQAADSTAVNGSITPTDKKIGFLGLGLMGSGIVSNLLKMGHTVTVWNRTAEKEGARLGRTPAEVVSTCDITFACVSDPKAAKDLVLGPSGVLQGIRPGKCYVDMSTVDADTVTELAQVIVSRGGRFLEAPVSGNQQLSNDGMLVILAAGDRGLYEDCSSCFQAMGKTSFFLGEVGNAAKMMLIVNMVQGSFMATIAEGLTLAQVTGQSQQTLLDILNQGQLASIFLDQKCQNILQGNFKPDFYLKYIQKDLRLAIALGDAVNHPTPMAAAANEVYKRAKALDQSDNDMSAVYRAYIH
B7: Mri1 (enzyme, UniProt Q9CQT1 1-369)
chain: MTLEAIRYSPGSLQILDQLQLPEHCHYEALSSVQQASEAIRAMKVRGAPAIALVGCLSLAVELRAGAGGPGLAALVAFVRDQLRLLVAARPTAVNMARAARDLGQVAAQEAEREGATEETVRERVIRFAEDMLEKDLKDNRSIGDLGARHLLEQTNPRGGKVTVLTHCNTGALATAGYGTALGVIRSLHEMGRLEHTFCTETRPYNQGARLTAFELVYEQIPATLITDSMAAAAMAHRGVSAVVVGADRVVANGDTANKIGTYQLAIVAKHHGVPFYVAAPSSSCDLHLETGKEIVIEERPSQELTDLNGVRIAAQGIRVWNPAFDVTPHELITGGIITELGVFAPEELRGALSASVFSEGQTLDSPWV
B8: Cask (protein, UniProt O70589 1-926)
chain: MADDDVLFEDVYELCEVIGKGPFSVVRRCINRETGQQFAVKIVDVAKFTSSPGLSTEDLKREASICHMLKHPHIVELLETYSSDGMLYMVFEFMDGADLCFEIVKRADAGFVYSEAVASHYMRQILEALRYCHDNNIIHRDVKPHCVLLASKENSAPVKLGGFGVAIQLGESGLVAGGRVGTPHFMAPEVVKREPYGKPVDVWGCGVILFILLSGCLPFYGTKERLFEGIIKGKYKMNPRQWSHISESAKDLVRRMLMLDPAERITVYEALNHPWLKERDRYAYKIHLPETVEQLRKFNARRKLKGAVLAAVSSHKFNSFYGDPPEELPDFSEDPTSSGLLAAERAVSQVLDSLEEIHALTDCSEKDLDFLHSVFQDQHLHTLLDLYDKINTKSSPQIRNPPSDAVQRAKEVLEEISCYPENNDAKELKRILTQPHFMALLQTHDVVAHEVYSDEALRVTPPPTSPYLNGDSPESANGDMDMENVTRVRLVQFQKNTDEPMGITLKMNELNHCIVARIMHGGMIHRQGTLHVGDEIREINGISVANQTVEQLQKMLREMRGSITFKIVPSYRTQSSSCERDSPSTSRQSPANGHSSTNNSVSDLPSTTQPKGRQIYVRAQFEYDPAKDDLIPCKEAGIRFRVGDIIQIISKDDHNWWQGKLENSKNGTAGLIPSPELQEWRVACIAMEKTKQEQQASCTWFGKKKKQYKDKYLAKHNAVFDQLDLVTYEEVVKLPAFKRKTLVLLGAHGVGRRHIKNTLITKHPDRFAYPIPHTTRPPKKDEENGKNYYFVSHDQMMQDISNNEYLEYGSHEDAMYGTKLETIRKIHEQGLIAILDVEPQALKVLRTAEFAPFVVFIAAPTITPGLNEDESLQRLQKESDVLQRTYAHYFDLTIINNEIDETIRHLEEAVELVCTAPQWVPVSWVY

Target: translocated promoter region (Tpr) (mouse (endogenous in NSPCs)) (UniProt F6ZDS4)
Assay: affinity purification with mass spectrometry; endogenous immunoprecipitation from SVZ-derived mouse NSPC lysates with Tpr or P-Tpr as bait (antibody on protein A Sepharose, 4 h, 4 °C; lysis buffer 1% Nonidet P-40, 150 mM NaCl, 1 mM EDTA, 20 mM Tris HCl pH 8.0); S-Trap, Q-Exactive Plus, MaxQuant label-free quantification; cut off log2 FC ≥ 1.0

binding, binds:
B1

Target: phospho-Tpr (P-Tpr) (mouse (endogenous in NSPCs)) (UniProt F6ZDS4)
Assay: as above

binding, binds:
B2
B3
B4
B5
B6
B7
B8

Target: translocated promoter region (Tpr) (mouse (endogenous in NSPCs)) (UniProt F6ZDS4)
Assay: as above
Remark: another data set of the same source

binding, binds:
Otx1 (from UniProt P80205 1-355)
RuvBl1 (from UniProt P60122 1-456)
Brg1 (from UniProt Q3TKT4 1-1613)
CBX2 (from UniProt P30658 1-519)
Sox2 (from UniProt P48432 1-319)
Arid1a (from UniProt A2BH40 1-2283)
PCID2 (from UniProt Q8BFV2 1-399)
Sox4 (from UniProt Q06831 1-440)

Target: phospho-Tpr (P-Tpr) (mouse (endogenous in NSPCs)) (UniProt F6ZDS4)
Assay: as above
Remark: another data set of the same source

binding, binds:
Bclaf1 (from UniProt Q8K019 1-919)
Atp6v0c (from UniProt P63082 1-155)
cyclin-dependent kinase 1 (Cdk1) (from UniProt P11440 1-297) (enzyme)

No constants are given. Whether binding was seen depends on the method and setting. In cells and extracts the contact can be indirect. Here binding means that the protein was enriched with, or labelled near, the bait; the list need not be complete.
